## Primary screen of a compound library

From ChEMBL document CHEMBL3988442, “University of Dundee, Small-Polar-MMV Screening Library” (2021).

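Assay of Toxoplasma gondii numbers, read through their beta-galactosidase reporter with a colour substrate. Concentration: 50 µM. The record gives no direction; the compounds picked for IC50 retests had high values, so higher reads as fewer parasites. About 18,000 compounds were tested under these conditions; 0.94% (about 170) showed 50% or more at least once.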

The filed quantity is “Percent Effect” (%). The record does not define 0% and 100%; most values in the screen are far below 50% and negative numbers occur (in some assays of this library far below -100). This is an unselected part of the compounds tested.

SMILES,Percent Effect
CCc1nn(C)c(CC)c1S(=O)(=O)N1CCC(N)CC1,-3.695
CC(C)NC(=O)c1cc(S(=O)(=O)N2CCOCC2)cs1,0.5402
Cn1ccnc1C1CCCN1C(=O)c1cccs1 (centres undefined),5.792
CCNC1CCS(=O)(=O)C1 (centres undefined),43.87
Cc1ccc(OCC(=O)NC2CCS(=O)(=O)C2)c(Br)c1 (centres undefined),-11.45
COc1c(C(=O)N2CCN(C)CC2)sc2ccccc12,-11.36
CN1CCCCC1CCC(=O)NCCn1cccc1 (centres undefined),-20.12
CC(C(=O)N1CCOCC1)N1CCC(CO)CC1 (centres undefined),-3.94
CC(C)=CCN(C)CC1CCN(CCO)CC1,-7.369
O=c1ccc(-c2noc(C3CCCC3)n2)c[nH]1,-28.81
Cc1ccc(OCC(=O)NCC2CCCO2)nc1 (centres undefined),-6.592
Cc1ccc(C(=O)NCCN2CCCC(C)C2)cn1 (centres undefined),-25.23
CC1CCCN(CC(=O)NC2(C#N)CCCC2)C1 (centres undefined),0.1518
CC1(C)CN(C(=O)c2cc[nH]n2)CC2(CCCC2)O1,10.75
O=S(=O)(Cc1ccon1)N1CCCC(c2ncc[nH]2)C1 (centres undefined),14.65
Cc1nn(C)c(C)c1CCC(=O)N[C@@H]1CCNC[C@H]1O,2.474
O=C(Nc1cncc(Br)c1O)c1csnn1,1.319
CN(C(=O)c1ccc(S(C)(=O)=O)cc1)c1ccccc1,-1.402
Clc1ccc2nc(CN3CCNCC3)cn2c1,4.21
OCCC1COCCN1 (centres undefined),11.11
N#Cc1ccccc1CN1CCCC1CO (centres undefined),-3.427
CN1CCN(C(=O)CC(C)(C)C)CC1,15.05
CNC1CCN(CC(=O)N2CCN(C)CC2)CC1,-5.007
Cc1cc(Cl)ccc1OCC(=O)N[C@@H]1CCOC[C@H]1O,-8.852
COCCNC(=O)Cc1cnn(-c2ccccc2)c1,22.27
O=c1[nH]c(NCCO)nc2ccccc12,-16.2
CN(C(=O)c1ccc2c(c1)NC(=O)CS2)C1CCCC1,-12.69
CC(c1ccon1)N(C)C(=O)Cc1ccsc1 (centres undefined),-6.425
CC(C)NC(=O)NCCCn1nc2n(c1=O)CCCC2,-26.72
CN1CCN(Cc2cccc3c2OCO3)CC1,-6.237
O=C(Cc1ccc(O)cc1)NC1CCNCC1,-7.304
Cn1cccc1CN(CCC#N)CCN1CCOCC1,33.02
CCCOc1cccc(C(=O)N(C)CC(N)=O)c1,-8.564
Cn1nccc1CNS(=O)(=O)c1cc(Cl)cnc1N,-1.191
CC(O)CC(C)(C)CN (centres undefined),-14.75
NCc1ccccc1-n1cccn1,-20.81
FC(F)OC1CCNC1 (centres undefined),-10.36
Cc1nc(O)c(C(=O)NCc2ncc[nH]2)cc1Br,-0.04086
O=C(COc1ccc(Br)cc1)NCc1nnc[nH]1,-17.19
CCCC(C#N)NC(=O)c1cccc2c1OCCO2 (centres undefined),-0.518
CN(Cc1ncc[nH]1)c1cc(C2CC(N)C2)nc(N)n1 (centres undefined),-10.22
O=C(NCC1CCCNC1)OCc1ccccc1 (centres undefined),-4.222
CCCc1ncncc1C(=O)NCC1CNCCO1 (centres undefined),1.892
Fc1cnc(N2CCNCC2)nc1,-2.292
COc1ccc(C(=O)CCN(C)C)cc1OC,5.275
COc1cc(-c2cnn(CCC(N)=O)c2)c(Cl)cn1,0.9755
NS(=O)(=O)N1CCN(Cc2cc(Br)cs2)CC1,-6.476
COC(C(=O)NCC1(C)COC1)c1ccccc1 (centres undefined),-2.107
c1cc(-c2ncco2)ccn1,3.788
CC(C)(C)Oc1ccncc1N,0.6774
OCc1ccccc1CC1CCNCC1,2.025
CCCN(C(=O)c1cscn1)C1CCNCC1,2.732
CCN1CCN(CCOc2ccccc2CO)CC1,3.862
NC(=O)CN1CCCN(C(=O)c2cccs2)CC1,-15.28
CS(=O)(=O)CC1(CNc2cccc(C(F)(F)F)n2)CC1,2.223
CC(NCC1OCCO1)c1ccc(Cl)s1 (centres undefined),-3.446
COC(=O)Cn1cnc(N)n1,-16.73
O=C1CN(Cc2ccccc2)C(=O)CN1,-4.936
CN(C)c1cc(CNc2ccc(C#N)cn2)ccn1,14.66
Cc1ocnc1CNC(=O)c1ccon1,99.22
CNC(=O)CSc1nc(C)nc(C)c1C#N,-3.867
C1CC2CNCC1O2,5.6
COC[C@@H]1CCCN1C(=O)Nc1ccc(C(C)=O)cc1,4.484
CC1CCCN(c2cc(CNS(C)(=O)=O)ccn2)C1 (centres undefined),-7.925
COc1ccc(NC(C(N)=O)c2ccc(Br)cc2)cn1 (centres undefined),-1.662
COc1ccccc1OCC(C)CN (centres undefined),21.05
CC(C)(CNC(=O)c1nccnc1N)N1CCOCC1,-5.159
O=C(Cc1cccs1)NCC1CCCNC1 (centres undefined),-0.08361
O=C(NCCNCCO)c1cc2ccccc2[nH]1,-6.245
CS(=O)(=O)Cc1ccc(C(=O)NCC2CCCO2)cc1 (centres undefined),17.41
CC1COCCN1S(=O)(=O)N1CCCCC1 (centres undefined),10.76
CCc1ccccc1C(=O)N[C@@H](C)C(N)=O,-15.05
CC(C)N(CCCNC(=O)c1ccoc1)S(C)(=O)=O,-1.113
NC(=O)CCN(Cc1ccccc1F)C1CC1,1.645

Some entries from above, unchanged:

SMILES	Percent Effect
CC(C)NC(=O)NCCCn1nc2n(c1=O)CCCC2	-26.72
O=C1CN(Cc2ccccc2)C(=O)CN1	-4.936
Cc1cc(Cl)ccc1OCC(=O)N[C@@H]1CCOC[C@H]1O	-8.852
CN(Cc1ncc[nH]1)c1cc(C2CC(N)C2)nc(N)n1 (centres undefined)	-10.22